Measurements published in patent US20240158754A1, “REDUCING HIGH MANNOSE GLYCAN PROTEIN EXPRESSION USING GUANOSINE 5'-MONOPHOSPHATE” (MERCK SHARP & DOHME LLC, priority 2021, published 2024).

Key:
Assay type in all cases: cell-based, Chinese hamster
[1] = tested on: recombinant CHO cell lines expressing monoclonal antibodies (mAb A, mAb B, or mAb C); test: 10-day fed-batch assay with GMP (Example 2), statements for all cell lines
Description: Cells were cultured in Merck proprietary chemically defined media in increasing volume to obtain sufficient number of cells for inoculation. For cell lines expressing mAb A and mAb B, cells were seeded at 0.5×10^6 cells per mL into Merck proprietary chemically defined production medium in two 1 L Erlenmeyer flasks at a final volume of 250 mL in each flask. For cell line expressing mAb C, cells were seeded at 1.0×10^6 cells per mL into production medium in two 1 L Erlenmeyer flasks at a final volume of 250 mL in each flask. Cells were incubated at 36.5° C., with agitation at 100 rpm, in presence of 5% CO2, and humidity ≥70%. Merck proprietary chemically defined nutrient feed media were added to all the cultures on day 3, day 6, and day 8. On Day 6, cells from both 1 L flasks for each cell line were pooled and then aliquoted in 125 mL Erlenmeyer flasks with 30 mL working volume, respectively. A 200 mM stock solution of GMP was prepared by adding Guanosine 5′-monophosphate disodium salt hydrate (Sigma Aldrich, St. Louis, MO) in purified water. […]
(§1) Cell culture parameters were analyzed on day 0, 3, 6, 8 and 10, and the corresponding spent medium supernatants were evaluated for antibody titer, charge variants, and glycan analysis on day 10 to assess the effect of GMP on cell growth, viability, titer, and glycan profile of the recombinant antibodies. Cell density and viability were measured using the trypan blue exclusion method with Cedex Bio Analyzer (Roche Diagnostics GmbH, Mannheim, Germany). Culture pH was measured using ABL80 Blood/Gas Analyzer (Radiometer, Denmark). Cell culture metabolites were measured using RX Imola (Randox Laboratories Ltd. Crumlin, UK) and osmolality was measured using a micro-Osmometer 2020 (Advanced Instruments, Norwood, MA).
Antibody titer was analyzed using a mAb-specific reverse-phase high-performance liquid chromatography (HPLC) or analytical Protein A HPLC method. Multiple product quality attributes were analyzed on harvested cell-culture fluid (HCCF) after a Protein A chromatography step. […]

[2] = tested on: recombinant CHO cell line expressing mAb C; test: 10-day fed-batch assay with GMP (Example 2); conditions: for High Molecular Weight / Main Peak / Total Acidic Charge Variants: values relative to control
Description: (§2) Cells were cultured in Merck proprietary chemically defined media in increasing volume to obtain sufficient number of cells for inoculation. For cell lines expressing mAb A and mAb B, cells were seeded at 0.5×10^6 cells per mL into Merck proprietary chemically defined production medium in two 1 L Erlenmeyer flasks at a final volume of 250 mL in each flask. For cell line expressing mAb C, cells were seeded at 1.0×10^6 cells per mL into production medium in two 1 L Erlenmeyer flasks at a final volume of 250 mL in each flask. Cells were incubated at 36.5° C., with agitation at 100 rpm, in presence of 5% CO2, and humidity ≥70%. Merck proprietary chemically defined nutrient feed media were added to all the cultures on day 3, day 6, and day 8. On Day 6, cells from both 1 L flasks for each cell line were pooled and then aliquoted in 125 mL Erlenmeyer flasks with 30 mL working volume, respectively. A 200 mM stock solution of GMP was prepared by adding Guanosine 5′-monophosphate disodium salt hydrate (Sigma Aldrich, St. Louis, MO) in purified water. After the cells were aliquoted in separate 125 mL test flasks on day 6, GMP was added to the cultures at final concentration of 1 mM or 10 mM. No change in pH and osmolality was observed as a result of the GMP addition. A control condition with no added GMP was also created for each cell line. All conditions were run with two replicates. All cultures were harvested on day 10.
as §1
(§3) Antibody titer was analyzed using a mAb-specific reverse-phase high-performance liquid chromatography (HPLC) or analytical Protein A HPLC method. Multiple product quality attributes were analyzed on harvested cell-culture fluid (HCCF) after a Protein A chromatography step. Analysis of HMW species was performed by size-exclusion chromatography, analysis of charge variants was performed by ion exchange chromatography, and analysis of N-glycan was performed by ultra-performance liquid chromatography (UPLC) with 2-aminobenzamide (2-AB) labeling.

[3] = tested on: recombinant CHO cell line expressing mAb B; test: 10-day fed-batch assay with GMP (Example 2); conditions: for High Molecular Weight / Monomer / Total Acidic Charge Variants: values relative to control
Description: as §2, §1, §3

With `Nc1nc2c(ncn2[C@@H]2O[C@H](COP(=O)(O)O)[C@@H](O)[C@H]2O)c(=O)[nH]1` [Component 6, Guanosine 5′-monophosphate] the “impact on product yield” value [1] was “no negative impacts”, the “change in pH and osmolality on addition” value ([1]; GMP 1 mM or 10 mM added day 6) was “No change” and the “Titer and other product quality attributes (such as charge variants and aggregation)” value ([1]; all cell lines) was “largely unaffected”. The Ammonia ([2]; GMP 1 mM) was 6.5 mM, the “High Molecular Weight” value ([2]; GMP 1 mM) was 0.98% and the “Main Peak” value ([2]; GMP 1 mM) was 0.99%. The “Total Acidic Charge Variants” value ([2]; GMP 1 mM) was 0.99%, the Ammonia ([2]; GMP 10 mM) was 4.5 mM and the “High Molecular Weight” value ([2]; GMP 10 mM) was 0.93%. The “Main Peak” value ([2]; GMP 10 mM) was 1.00%, the “Total Acidic Charge Variants” value ([2]; GMP 10 mM) was 1.06% and the Ammonia ([3]; GMP 1 mM) was 3.2 mM. The Lactate ([3]; GMP 1 mM) was 0.9 g/L, the “High Molecular Weight” value ([3]; GMP 1 mM) was 1.06% and the Monomer ([3]; GMP 1 mM) was 1.0%. The “Total Acidic Charge Variants” value ([3]; GMP 1 mM) was 0.98%, the Ammonia ([3]; GMP 10 mM) was 4.2 mM and the Lactate ([3]; GMP 10 mM) was 1.0 g/L. The “High Molecular Weight” value ([3]; GMP 10 mM) was 1.65%, the Monomer ([3]; GMP 10 mM) was 0.99% and the “Total Acidic Charge Variants” value ([3]; GMP 10 mM) was 0.97%.
